Reference: PubChem BioAssay AID1347076 (National Center for Advancing Translational Sciences (NCATS), 2019)
In all, about 400,000 compounds went through this assay and about 13,000 (3.2%) were called active. This list was built around the results that the source calls inconclusive (neither active nor inactive); the mix of calls is not that of the screen. Calls come from the whole dose curve; as a rule, active = well fitted cell-killing curve with a large enough effect; inconclusive = small, poorly fitted or top-dose-only effect, or effect the other way; inactive = flat fitted curve, though single readings scatter. Potencies of inconclusive entries are doubtful fits and often do not repeat.

Experiment: qHTS assay for MDR1-selective chemotherapeutics: Primary screen using the drug-selected MDR subline cells KB-V1; note: nearly all actives have a fitted effect of over 60% in size
Details: KB-V1 MDR cells viability, CellTiter-Glo, 72 h; activity change, negative = cytotoxicity: at 46.1 µM (top of the series)
Outline: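 Luminescent ATP read-out (CellTiter-Glo, 10 min) measures survival of drug-selected KB-V1 MDR cells after 72 h, 37 degrees C compound exposure. Medium: phenol-red-free DMEM, 10% FBS. Values from fitted concentration-response curves.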
% is set by controls: 0 for no effect and ±100 for the full control effect; potency is the fitted concentration of half-maximal effect.

SMILES	activity change, negative = cytotoxicity	Potency
CC(C)Oc1ccc(CNC(=O)c2ccc(NC(=O)N3CC(C)Sc4ccccc43)cc2)cc1 (configuration not stated)	inactive: -7.3%	–
COc1cccc(-c2nnc(NC(C)=O)o2)c1	inactive: -28%	–
Cc1ccc(N2CC(C(=O)Nc3ccccc3N3CCCC3)CC2=O)cc1 (configuration not stated)	–	inconclusive: 29.1 µM [cytotoxic, single point]
CCCc1cc(=O)n2[nH]cc(-c3ccc(Cl)cc3)c2n1	–	active: 7.31 µM
O=C1/C(=C/c2ccccc2)SC(=S)N1CCCC(=O)N1CCCCC1CCO (configuration not stated)	–	inconclusive: 29.1 µM [cytotoxic, single point]
O=C(NCc1ccc(Cl)cc1)C1CCCCN1S(=O)(=O)c1ccccc1 (configuration not stated)	–	inconclusive: 11.6 µM [cytotoxic, partial curve]
CC(=O)Nc1ccc(S(=O)(=O)NC(CC(=O)O)c2ccc(OC(C)C)cc2)cc1 (configuration not stated)	–	inconclusive: 20.6 µM [rising, partial curve]
COc1cc(C2C3=C(CC(C)(C)CC3=O)N(C)C3=C2C(=O)CC(C)(C)C3)ccc1O	–	inconclusive: 29.1 µM [rising, single point]
CCc1ccc(OCC(=O)NN2Cc3ccccc3C2=N)cc1	–	inconclusive: 11.6 µM [cytotoxic, partial curve]
O=C(CC(=O)Nc1ccccc1F)Nc1ccccc1F	inconclusive: -38.9%	–
CN1C(=O)Nc2cccc3cccc1c23	–	active: 0.461 µM
COc1cc(OC)cc(C(=O)Oc2ccc(/C=N/Nc3nc4ccccc4s3)cc2OC)c1	–	inconclusive: 29.1 µM [cytotoxic, single point]
CCCn1c(C2CCCN2c2nc(-c3ccc(C)cc3)cs2)nc2ccccc21 (configuration not stated)	–	inconclusive: 29.1 µM [cytotoxic, single point]
O=C(CN1C(=O)NC2NC(=O)NC21)N/N=C/c1ccccc1O (configuration not stated)	inactive: 7.15%	–
COc1cccc(NC(=O)COc2c(F)c(F)c(C(F)(F)F)c(F)c2F)c1	inactive: 8.39%	–
Cc1ccc(S(=O)(=O)N/N=C/c2ccc(O)c(O)c2)cc1[N+](=O)[O-]	–	inconclusive: 23.1 µM [rising, partial curve]
Cc1ccc(OCCC(=O)OCC(=O)Nc2ccc(Cl)cn2)cc1	inactive: 29.7%	–
Cc1ccc(NC(=O)Cc2ccc3c(c2)OCCO3)cc1S(=O)(=O)N1CCCCC1	–	inconclusive: 7.31 µM [cytotoxic, partial curve, poor fit]
COc1ccc(CCNC(=O)c2cc(=O)c3ccc(C)cc3o2)cc1OC	–	inconclusive: 23.1 µM [cytotoxic, single point]
CCCCCn1c(=O)[nH]c2cc(C(=O)NC(C)CC)ccc2c1=O (configuration not stated)	inactive: -1.9%	–
Cc1cc(OCCCN2CCC(C(O)(c3ccccc3)c3ccccc3)CC2)ccc1Br	–	active: 20.6 µM
C[C@H](CO)N1C[C@H](C)[C@@H](CN(C)C(=O)Nc2ccc3c(c2)OCO3)Oc2c(NC(=O)Nc3ccc(C(F)(F)F)cc3)cccc2C1=O	–	inconclusive: 29.1 µM [cytotoxic, single point]
CCCS(=O)(=O)NC(=O)C1(C)CCN(C(=O)c2cccc(OC(F)(F)F)c2)C1 (configuration not stated)	inactive: -0.0066%	–
COc1ccc2nc(SCC(=O)Nc3ccccc3C)[nH]c2c1	–	active: 14.6 µM

SMILES	activity change, negative = cytotoxicity	Potency
CCOC(=O)C1CCCN(C(=O)c2ccc3nc(-c4ccc(OC)c(OC)c4)c(-c4ccc(OC)c(OC)c4)nc3c2)C1 (configuration not stated)	–	inconclusive: 16.4 µM [rising, single point]
CCCCNc1c(C(=O)OCC)c(C)nc2c1cnn2CC	–	inconclusive: 2.59 µM [cytotoxic, full curve]
O=c1nc2sc3ccccc3n2c(=O)n1-c1ccc(Cl)cc1	–	inconclusive: 20.6 µM [cytotoxic, single point]
CCn1c2ccccc2c2cc([N+](=O)[O-])ccc21	–	inconclusive: 29.1 µM [cytotoxic, single point]
O=C(/C=C/c1cccc([N+](=O)[O-])c1)N1CCN(c2ccccn2)CC1	inactive: 13.1%	–
CC1CCN(c2ccc(S(=O)(=O)N3CCC(C)CC3)cc2N)CC1	inactive: -10.7%	–
COCCn1c(=O)[nH]c2cc(C(=O)Nc3ccc(OC)cc3)ccc2c1=O	–	inconclusive: 23.1 µM [rising, single point]
COc1ccc(C(=O)Nc2ccc3oc(-c4cccnc4)nc3c2)cc1OC	–	inconclusive: 29.1 µM [cytotoxic, single point]
C=CCOCC(O)Cn1c(N2CCCC2)nc2c1c(=O)[nH]c(=O)n2C (configuration not stated)	inactive: 0.022%	–
C=CCn1c(COc2cccc(C)c2)nnc1SCC(=O)NC(=O)NCc1ccco1	inactive: -5.11%	–
COc1cc(CN2CCC(C(=O)N3CCN(c4ccccc4F)CC3)CC2)cc(OC)c1O	–	inconclusive: 5.8 µM [cytotoxic, full curve]
COC(=O)c1ccc2c(=O)n(CCN3CCOCC3)c(SCC(=O)Nc3ccc(C)cc3)nc2c1	inactive: -15.5%	–
COc1ccccc1NC(=O)CSc1nnc(COc2ccccc2OC)n1C	–	inconclusive: 6.51 µM [cytotoxic, partial curve, poor fit]
Cc1nc2ccccc2nc1CSc1nncs1	–	inconclusive: 29.1 µM [cytotoxic, single point]
Cc1ccc2c(c1)cc(C(=O)NCc1ccccc1C)n2C	inactive: -8.21%	–
CCNc1nc2[nH]c(=O)c3c(c2s1)OC(N)=C(C#N)C3c1ccc(C)cc1 (configuration not stated)	–	inconclusive: 18.4 µM [rising, partial curve, poor fit]
CC(=O)c1cc2c(cc1NC(=O)CN(C)S(=O)(=O)c1cccs1)OCO2	inactive: -9.95%	–
Cc1ccc(-c2cc(C(=O)O)n(-c3ccc(S(N)(=O)=O)cc3)n2)cc1	–	inconclusive: 20.6 µM [rising, single point]
COCCN1CCn2c(nc3cc(Nc4nnc(C)c5ccccc45)ccc32)C1	inactive: 14.1%	–
Cc1cccc(Cn2c(COc3ccccc3)nc3ccccc32)c1	–	inconclusive: 13 µM [cytotoxic, partial curve]
O=C(Cc1cccs1)Nc1nnc(-c2ccccc2)s1	inactive: 0%	–
O=C(CSc1nnc(-c2cccs2)n1-c1ccccc1)N1CCCc2ccccc21	–	active: 16.4 µM
COc1ccc(N2CCN(C(=O)CSc3nnc4n3C(C)(C)Cc3ccccc3-4)CC2)cc1	–	active: 5.17 µM

Part of the list above in order of length of the SMILES, low to high:
SMILES	activity change, negative = cytotoxicity	Potency
CN1C(=O)Nc2cccc3cccc1c23	–	active: 0.461 µM
CCCCNc1c(C(=O)OCC)c(C)nc2c1cnn2CC	–	inconclusive: 2.59 µM [cytotoxic, full curve]
Cc1cccc(Cn2c(COc3ccccc3)nc3ccccc32)c1	–	inconclusive: 13 µM [cytotoxic, partial curve]
O=c1nc2sc3ccccc3n2c(=O)n1-c1ccc(Cl)cc1	–	inconclusive: 20.6 µM [cytotoxic, single point]
COc1ccccc1NC(=O)CSc1nnc(COc2ccccc2OC)n1C	–	inconclusive: 6.51 µM [cytotoxic, partial curve, poor fit]
O=C(CSc1nnc(-c2cccs2)n1-c1ccccc1)N1CCCc2ccccc21	–	active: 16.4 µM
C=CCn1c(COc2cccc(C)c2)nnc1SCC(=O)NC(=O)NCc1ccco1	inactive: -5.11%	–
CCNc1nc2[nH]c(=O)c3c(c2s1)OC(N)=C(C#N)C3c1ccc(C)cc1 (configuration not stated)	–	inconclusive: 18.4 µM [rising, partial curve, poor fit]
Cc1ccc(S(=O)(=O)N/N=C/c2ccc(O)c(O)c2)cc1[N+](=O)[O-]	–	inconclusive: 23.1 µM [rising, partial curve]
CCCS(=O)(=O)NC(=O)C1(C)CCN(C(=O)c2cccc(OC(F)(F)F)c2)C1 (configuration not stated)	inactive: -0.0066%	–
COC(=O)c1ccc2c(=O)n(CCN3CCOCC3)c(SCC(=O)Nc3ccc(C)cc3)nc2c1	inactive: -15.5%	–
